Measured values reported in publication PMC11599018.
Results are given in words; binding and its absence hold for the method and conditions named.

Protein sequences, listed by entry. Tags and fused reporters are not part of them. Residues count along the entry.
UniProt P02769, residues 25-607: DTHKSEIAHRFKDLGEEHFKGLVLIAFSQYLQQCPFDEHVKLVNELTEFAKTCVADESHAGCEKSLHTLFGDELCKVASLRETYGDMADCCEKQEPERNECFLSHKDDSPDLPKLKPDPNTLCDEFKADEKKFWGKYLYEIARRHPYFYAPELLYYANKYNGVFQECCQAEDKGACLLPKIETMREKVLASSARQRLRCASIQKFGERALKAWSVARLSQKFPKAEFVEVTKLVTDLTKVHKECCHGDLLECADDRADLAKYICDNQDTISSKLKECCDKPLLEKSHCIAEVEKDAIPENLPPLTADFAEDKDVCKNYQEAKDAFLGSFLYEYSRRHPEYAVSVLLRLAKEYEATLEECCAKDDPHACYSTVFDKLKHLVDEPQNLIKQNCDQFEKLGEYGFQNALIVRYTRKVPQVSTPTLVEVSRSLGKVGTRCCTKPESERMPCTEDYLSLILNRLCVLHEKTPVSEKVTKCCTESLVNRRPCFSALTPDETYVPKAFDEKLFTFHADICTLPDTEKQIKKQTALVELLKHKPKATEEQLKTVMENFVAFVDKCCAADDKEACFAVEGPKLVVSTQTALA
UniProt P30530, residues 26-449: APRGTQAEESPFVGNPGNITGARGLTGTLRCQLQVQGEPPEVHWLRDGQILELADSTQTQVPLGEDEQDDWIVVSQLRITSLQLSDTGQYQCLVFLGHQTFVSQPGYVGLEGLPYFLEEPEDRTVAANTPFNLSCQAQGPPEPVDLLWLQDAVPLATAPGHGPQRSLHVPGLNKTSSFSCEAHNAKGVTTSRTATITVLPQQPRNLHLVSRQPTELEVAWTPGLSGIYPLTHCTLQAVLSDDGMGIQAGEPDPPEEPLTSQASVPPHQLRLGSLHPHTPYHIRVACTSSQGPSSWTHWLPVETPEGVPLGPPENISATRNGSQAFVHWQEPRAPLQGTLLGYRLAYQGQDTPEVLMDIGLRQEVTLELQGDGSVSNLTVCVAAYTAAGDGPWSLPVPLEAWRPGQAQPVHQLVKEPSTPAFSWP

Target: bovine serum albumin (bovine) (UniProt P02769)
Experiment: AFM single molecule force spectro; both purified

Q: For “Human Axl (from UniProt P30530 26-449) (receptor)”, which binding is on record?
A: The binding was “no binding”.
